Some of these results come from one statement about several compounds together.
Assay: Steady-state NDP kinase activity, coupled enzymes (pyruvate kinase, lactate dehydrogenase)
Format: biochemical
Conditions: standard conditions: [ATP]=1 mM, [dTDP]=0.2 mM, 20° C.
Procedure: The activity of NDP kinase was measured at 20° C. with ATP and dTDP as substrates using coupled enzymes (pyruvate kinase and lactate dehydrogenase) (Lascu 1993). One unit is the amount of enzyme that catalyzes the phosphotransfer of 1 μmol/min under standard conditions: [ATP]=1 mM, [dTDP]=0.2 mM. Rate constants (kcat) and Michaelis constants (Km) were determined from initial velocities for two different constant ratios of nucleotide [dTDP]/[ATP]=0.05 0.1 with [ATP] varying from 0.2 to 2 mM. kcat is expressed by enzyme subunit. The ratio of the ^apparentkcat/^apparentKM at a given concentration of the other substrate is equal to the true value of kcat/KM for a ping-pong enzyme.

Molecule | specific activity
NDPK-A: wild type human NDP kinase A, encoded by nm23-H1 | 1200-1400 U/mg
NDPK-B: wild type human NDP kinase B, encoded by nm23-H2 (protein, UniProt P22392 1-152, looked up) Nucleoside diphosphate kinase …: MANLERTFIAIKPDGVQRGLVGEIIKRFEQKGFRLVAMKFLRASEEHLKQHYIDLKDRPFFPGLVKYMNSGPVVAMVWEGLNVVKTGRVMLGETNPADSKPGTIRGDFCIQVGRNIIHGSDSVKSAEKEISLWFKPEELVDYKSCAHDWVYE | 1200-1400 U/mg

Source: patent US20030207830A1, “Mutant NDP kinases for antiviral nucleotide analog activation and therapeutic uses thereof” (priority 2002, published 2003)
